Reference: PubChem BioAssay AID2685 (National Center for Advancing Translational Sciences (NCATS), 2010)
This is one part of the list. These are further read-outs of the screen, such as a control signal, another cell line or another target. No call is given for them. Most of these compounds were active or inconclusive in the main read-out, so they are no random draw. The note in brackets gives the kind of curve behind each potency; many fits are weak.

Assay: qHTS Assay for Lipid Storage Modulators in Drosophila S3 Cells;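 on cell number change: cells counted by Cell Tracker Red CMTPX staining in the red channel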
Settings: BODIPY lipid droplet fluorescence, 18-24 h; for cell number change: measured here: cell count max response, cells fed with added oleic acid
Summary of the method: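 Drosophila S3 cells got compounds at several concentrations plus oleic acid (400 uM solution). Laser-scanning cytometry with 488 nm excitation read lipid droplets at 500-530 nm and cells at 575-640 nm. Percent activity was relative to 20 uM Triacsin C.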

[1] = measured here: cell number channel AC50, cells fed with added oleic acid
[2] = measured here: lipid fluorescence (Fed channel) AC50, cells fed with added oleic acid

Row | Structure (SMILES) | cell number change | AC50 [1] | AC50 [2]
1 | CC(C)(C)C(=O)Nc1cc2nn(-c3ccccc3)nc2cc1Cl | 163% | 29.1 µM [rising, single point] | 29.1 µM [rising, single point]
2 | NC(=O)CSc1nnc(-c2cccc(S(=O)(=O)N3CCOCC3)c2)n1C1CCCCCC1 | 7.97% |  | 0.00651 µM [falling, full curve, poor fit]
3 | CC1=CC(C)(C)N(S(=O)(=O)c2ccc(C)cc2)c2cc(C)ccc21 | -55.7% | 20.6 µM [falling, single point] | 18.4 µM [falling, single point]
4 | CN1OC(CC(=O)O)N(c2ccc(Cl)cc2)C1=O (configuration not stated) | -53.6% | 3.66 µM [falling, full curve] | 6.51 µM [falling, single point]
5 | Oc1ccc(/C=N/NC(=S)NCC2CCCO2)cc1 (configuration not stated) | -17.3% |  | 11.6 µM [falling, partial curve]
6 | CCOC(=O)CNS(=O)(=O)c1cc(-c2n[nH]c(=O)c3ccccc23)ccc1C | 9.33% |  | 
7 | CCOC(=O)c1cnc2ccc(C(=O)OC)cc2c1NCCc1ccc(OC)c(OC)c1 | -0.114% |  | 0.116 µM [rising, full curve, poor fit]
8 | CC(=O)N(c1ccc2oc(=O)sc2c1)S(=O)(=O)c1ccc(C(=O)O)cc1 | 6.25% |  | 1.16 µM [falling, single point]
9 | O=S(=O)(NC(=NCc1ccccc1)c1ccc(F)cc1)c1ccc(Cl)cc1 | 132% | 23.1 µM [rising, partial curve] | 0.58 µM [rising, single point]
10 | COc1ccc(NC(=O)COC(=O)CN2C(=O)NC(C)(C)C2=O)cc1 | -13.1% |  | 1.64 µM [rising, single point]
11 | Cc1ccc(S(=O)(=O)Nc2ccnc3ccccc23)cc1 |  | 1.84 µM [rising, single point] | 2.31 µM [rising, single point]
12 | CS(=O)(=O)NCc1ccc(C(=O)NCc2ccccc2)cc1 | -2.38% |  | 
13 | O=[N+]([O-])c1ccccc1Nc1nc(-c2cccnc2)cs1 | -18.5% |  | 
14 | COc1ccc(-c2nc(C#N)c(NCc3ccc(C)cc3)o2)cc1OC | -29.5% |  | 0.116 µM [rising, full curve, poor fit]
15 | CCOc1ccc(-c2nnc(N)o2)cc1 | -1.43% |  | 6.51 µM [rising, single point]
16 | COc1ccc(Cl)cc1NC(=O)Cc1c(F)cccc1Cl |  |  | 1.46 µM [rising, partial curve]
17 | CCOc1ccccc1NC(=O)CN1c2cccc3cccc(c23)S1(=O)=O | -10% |  | 
18 | CCCCN(C)C(=O)c1cc2c(Cl)nc3ccccc3c2s1 | 47.7% | 18.4 µM [rising, single point] | 
19 | Cc1cc(C)c(S(=O)(=O)Nc2ccc(O)c(Sc3ncn[nH]3)c2)cc1C | -17.6% |  | 29.1 µM [falling, single point]
20 | O=C1CNC(=O)N1CC(=O)N1CCCc2ccccc21 |  |  | 29.1 µM [falling, single point]
21 | CC(=O)Oc1ccc(C2(C)CC(C)(C)NC(=S)N2C)c(OC(C)=O)c1 (configuration not stated) | -6.13% | 0.366 µM [falling, partial curve, poor fit] | 
22 | COc1ccc(NC(=O)c2nc3nc(C)cc(C(F)F)n3n2)cc1OC | 17.1% |  | 0.116 µM [falling, full curve, poor fit]
23 | COc1ccc2cc(-c3[nH]ncc3CN3C[C@@H]4CCC[C@H]3C4)ccc2c1 | -2.27% |  | 
24 | O=C(Nc1ccc(-c2nc3ccccc3o2)cc1)c1ccc2c(c1)OCO2 | 7.77% | 0.0651 µM [rising, full curve, poor fit] | 0.116 µM [rising, full curve, poor fit]
25 | COc1ccc(OCCCC(=O)Nc2cccnc2)cc1 | 36% | 18.4 µM [rising, single point] | 
26 | CCOc1ccc(/C=N/n2c(COc3ccccc3)n[nH]c2=S)cc1OC | 47.2% | 32.6 µM [rising, single point] | 
27 | CS(=O)(=O)N(CC(=O)Nc1ccccc1C(=O)NCCc1ccccc1)c1ccc2c(c1)OCCO2 | 21.1% |  | 0.651 µM [falling, single point]
28 | CC1=CC(C)(C)N(C(=O)CCl)c2cc(C)ccc21 | -24.6% | 0.0058 µM [falling, full curve, poor fit] | 0.82 µM [falling, full curve]
29 | Cc1ccc2c(c1)-c1c(ssc1=S)C(C)(C)N2C(=O)CN1C(=O)c2ccccc2C1=O | 19.7% |  | 16.4 µM [rising, partial curve]

Three entries out of the list, ordered by molecular weight, largest number first.
Row | Structure (SMILES) | cell number change | AC50 [1] | AC50 [2]
26 | CCOc1ccc(/C=N/n2c(COc3ccccc3)n[nH]c2=S)cc1OC | 47.2% | 32.6 µM [rising, single point] | 
3 | CC1=CC(C)(C)N(S(=O)(=O)c2ccc(C)cc2)c2cc(C)ccc21 | -55.7% | 20.6 µM [falling, single point] | 18.4 µM [falling, single point]
16 | COc1ccc(Cl)cc1NC(=O)Cc1c(F)cccc1Cl |  |  | 1.46 µM [rising, partial curve]
